The chains behind the UniProt entries cited, without tags or fusion partners. Residues count along the entry.
UniProt G7CES0, 29-471: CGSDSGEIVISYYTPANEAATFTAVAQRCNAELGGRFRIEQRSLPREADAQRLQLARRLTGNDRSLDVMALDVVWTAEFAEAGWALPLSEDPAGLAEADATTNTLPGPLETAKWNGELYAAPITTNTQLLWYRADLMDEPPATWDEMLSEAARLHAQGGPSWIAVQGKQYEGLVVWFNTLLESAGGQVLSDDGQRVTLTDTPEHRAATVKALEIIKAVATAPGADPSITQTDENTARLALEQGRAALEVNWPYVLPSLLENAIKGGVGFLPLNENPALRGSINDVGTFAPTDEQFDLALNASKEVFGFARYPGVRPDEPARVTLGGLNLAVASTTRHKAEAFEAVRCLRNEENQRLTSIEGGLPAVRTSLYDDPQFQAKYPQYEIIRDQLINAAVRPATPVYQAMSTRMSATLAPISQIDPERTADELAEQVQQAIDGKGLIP

According to article PMC9579956 (RSC Medicinal Chemistry, 2022):

Biological target: Mycobacterium thermoresistible (Mtr) LpqY (Mycolicibacterium thermoresistibile, UniProt G7CES0)
Type: binding
Conditions: single dose MST screen against LpqY

Question: Which “Pathogen Box screen signal/noise ratio” value does the source give for `CN1CCCC1CCO[C@](C)(c1ccccc1)c1ccc(Cl)cc1` (stereo partly shown) [MMV637229] here?
Answer: 3.2
